The test has as its system NCI-H460. The experiment in a line: Antiproliferative activity against human NCI-H460 cells after 48 hrs by MTT assay. Particulars: NCI-H460, 48 h. Type of test: functional, cell-based.

The structures appear in SMILES notation.

`COc1cc2c(c(OC)c1OC)-c1ccc(OC)c(=O)cc1[C@@H](NC(C)=O)CC2` [COLCHICINE] gave an IC50 of 22 nM.

Values taken from ChEMBL document CHEMBL4831506, “Discovery of novel trimethoxyphenylbenzo[d]oxazoles as dual tubulin/PDE4 inhibitors capable of inducing apoptosis at G2/M phase arrest in glioma and lung cancer cells” (Eur J Med Chem, 2021).
